In the odorant receptor screen of Mainland et al. (2015):
Where “and” joins values, the source holds several entries; their conditions need not be identical. Equal entries are not always repeated. The list shows a part of the results. Single wells; the ratio to wells without odorant was worked out here, and repeats agree poorly.

These molecules were tested on OR10A4 R262Q clone 1538 (assay: odorant receptor activation (CRE luciferase / Renilla) (fold of no-odor wells); higher = more activation). Conditions: 100 µM.

Compound | odorant receptor activation
CCCCCCCCC=O [nonyl aldehyde] | 1.25
C=CC(C)(O)CCC=C(C)C (centres undefined) [linalool] | 1.08
CC(C)=CCCC(C)=CC=O [citral] | 0.877
C=CCc1ccc(O)c(OC)c1 [eugenol] | 1.59
CC(C)CCC(=O)O [4-methylvaleric acid] | 0.932
COc1cc(C)ccc1O [2-methoxy-4-methylphenol] | 1.01
CC1CCC(C(C)C)C(O)C1 (single isomer, unassigned; (+)) [(+)-menthol] | 1.17
CCCCCCCC=O [octyl aldehyde] | 1.08
CC(C)C(=O)O [isobutyric acid] | 1.47 and 0.938
C=C(C)C1CC=C(C)C(=O)C1 (centres undefined) [r-carvone] | 0.975
CCCCCCCCCC=O [decyl aldehyde] | 1.5
CC1=CCC(C(C)(C)O)CC1 (centres undefined) [terpineol] | 1.13
CC(C)C=O [isobutyraldehyde] | 0.959 and 1.36
CC(C)CC(=O)O [isovaleric acid] | 1.1
CC1CCC(C(C)C)C(O)C1 (single isomer, unassigned; (-)) [(-)-menthol] | 1.19
CC12CCC(CC1)C(C)(C)O2 [cineole] | 0.999
COC(=O)c1ccccc1O [methyl salicylate] | 0.989
CCCCO [1-butanol] | 1.09
CCCCCCCC=CC=O [2-decenal] | 1.25
CC12CCC(C1)C(C)(C)C2=O (centres undefined) [fenchone] | 1.52
CCCC(=O)O [butyric acid] | 0.97
c1ccc(Oc2ccccc2)cc1 [diphenyl ether] | 1.22
C=CCSCC=C [diallyl sulfide] | 1.53
CCCCCCCCCCC=O [undecanal] | 1.1
CCCCCCCCOC(C)=O [octyl acetate] | 0.975
CC/C=C\CCO [cis-3-hexen-1-ol] | 1.11
c1cnccn1 [pyrazine] | 1.06
O=C1CCCCCCCCCCCCCCO1 [pentadecalactone] | 1.09

These molecules were tested on OR10A5 clone 1723 in the same assay as above. Conditions: 100 µM.

Compound | odorant receptor activation
CCCCCCCCC=O [nonyl aldehyde] | 0.833
C=CC(C)(O)CCC=C(C)C (centres undefined) [linalool] | 0.855
CC(C)=CCCC(C)=CC=O [citral] | 1.15
C=CCc1ccc(O)c(OC)c1 [eugenol] | 0.85
CC(C)CCC(=O)O [4-methylvaleric acid] | 0.785
COc1cc(C)ccc1O [2-methoxy-4-methylphenol] | 0.85
CC1CCC(C(C)C)C(O)C1 (single isomer, unassigned; (+)) [(+)-menthol] | 0.691
CCCCCCCC=O [octyl aldehyde] | 0.831
CC(C)C(=O)O [isobutyric acid] | 0.864
C=C(C)C1CC=C(C)C(=O)C1 (centres undefined) [r-carvone] | 0.773
CCCCCCCCCC=O [decyl aldehyde] | 0.723
CC1=CCC(C(C)(C)O)CC1 (centres undefined) [terpineol] | 1.65
CC(C)C=O [isobutyraldehyde] | 0.908
CC(C)CC(=O)O [isovaleric acid] | 0.984
CC1CCC(C(C)C)C(O)C1 (single isomer, unassigned; (-)) [(-)-menthol] | 0.759
CC12CCC(CC1)C(C)(C)O2 [cineole] | 0.701
COC(=O)c1ccccc1O [methyl salicylate] | 0.811
CCCCO [1-butanol] | 0.899
CCCCCCCC=CC=O [2-decenal] | 0.972
CC12CCC(C1)C(C)(C)C2=O (centres undefined) [fenchone] | 0.803
CCCC(=O)O [butyric acid] | 0.447
c1ccc(Oc2ccccc2)cc1 [diphenyl ether] | 0.708
C=CCSCC=C [diallyl sulfide] | 0.722
CCCCCCCCCCC=O [undecanal] | 1.12
CCCCCCCCOC(C)=O [octyl acetate] | 0.726
CC/C=C\CCO [cis-3-hexen-1-ol] | 0.699
c1cnccn1 [pyrazine] | 0.915
O=C1CCCCCCCCCCCCCCO1 [pentadecalactone] | 0.846

Each molecule was assayed on OR10A6 clone 1219 in the same assay as above. Conditions: 100 µM.

Compound | odorant receptor activation
CCCCCCCCC=O [nonyl aldehyde] | 0.974
C=CC(C)(O)CCC=C(C)C (centres undefined) [linalool] | 1.17
CC(C)=CCCC(C)=CC=O [citral] | 1.12
C=CCc1ccc(O)c(OC)c1 [eugenol] | 3.15 and 1.7
CC(C)CCC(=O)O [4-methylvaleric acid] | 0.753
COc1cc(C)ccc1O [2-methoxy-4-methylphenol] | 0.75
CC1CCC(C(C)C)C(O)C1 (single isomer, unassigned; (+)) [(+)-menthol] | 0.787
CCCCCCCC=O [octyl aldehyde] | 1.14
CC(C)C(=O)O [isobutyric acid] | 0.964
C=C(C)C1CC=C(C)C(=O)C1 (centres undefined) [r-carvone] | 0.982
CCCCCCCCCC=O [decyl aldehyde] | 1.58
CC1=CCC(C(C)(C)O)CC1 (centres undefined) [terpineol] | 1.06
CC(C)C=O [isobutyraldehyde] | 1.03
CC(C)CC(=O)O [isovaleric acid] | 1.19
CC1CCC(C(C)C)C(O)C1 (single isomer, unassigned; (-)) [(-)-menthol] | 0.801
CC12CCC(CC1)C(C)(C)O2 [cineole] | 0.976
COC(=O)c1ccccc1O [methyl salicylate] | 1.04
CCCCO [1-butanol] | 0.751
CCCCCCCC=CC=O [2-decenal] | 0.569
CC12CCC(C1)C(C)(C)C2=O (centres undefined) [fenchone] | 0.979
CCCC(=O)O [butyric acid] | 1.23
c1ccc(Oc2ccccc2)cc1 [diphenyl ether] | 1.05
C=CCSCC=C [diallyl sulfide] | 1.33
CCCCCCCCCCC=O [undecanal] | 1
CCCCCCCCOC(C)=O [octyl acetate] | 1.01
CC/C=C\CCO [cis-3-hexen-1-ol] | 0.985
c1cnccn1 [pyrazine] | 0.82
O=C1CCCCCCCCCCCCCCO1 [pentadecalactone] | 0.798
